The nature of this assay: qHTS Assay for Lipid Storage Modulators in Drosophila S3 Cells.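 For cell number change: cells counted by Cell Tracker Red CMTPX staining in the red channel.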 Conditions: BODIPY lipid droplet fluorescence, 18-24 h; for cell number change: measured here: cell count max response, cells fed with added oleic acid. Summed up: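 Laser-scanning cytometry quantifies lipid droplet accumulation (500–530 nm total intensity; droplet/cell object ratio) in oleic acid-fed (400 uM added) Drosophila S3 cells treated with a concentration series. 20 uM Triacsin C defined 100% inhibition.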

Setting [1] is: measured here: cell number channel AC50, cells fed with added oleic acid.
The mark [2] stands for this setting: measured here: lipid fluorescence (Fed channel) AC50, cells fed with added oleic acid.

What is called AC50 is the concentration giving half of the maximal activity seen. Read a low AC50 as greater potency.

The other results are listed elsewhere or left out. Shown are side measurements of this screen, not its main read-out; they come without a call. Compounds called inactive in the main read-out are mostly missing here. The note in brackets gives the kind of curve behind each potency; many fits are weak.

With `Cc1ccc(NC(=O)CCS(=O)(=O)c2ccccc2)cc1S(=O)(=O)N1CCCCCC1`, the cell number change is -31.5%. For the same compound, the AC50 under setting [1] is 16.4 µM [falling, partial curve]. Besides, the AC50 under setting [2] was 18.4 µM [falling, partial curve].

As for `Fc1cccc(NC(=S)NNc2c3ccccc3nc3ccccc23)c1`, the cell number change is -82.7%. The AC50 under setting [1] was 20.6 µM [falling, single point]. In addition, under setting [2], the AC50 was 18.4 µM [falling, single point].

As to `O=C(/C=C/Nc1ccc(Br)cc1F)c1ccccc1`, the AC50 by setting is: under setting [1], 6.51 µM [falling, single point]; under setting [2], 6.51 µM [rising, single point].

`Cc1cc(Oc2ccc(C#N)cc2)nc(NCc2ccccc2)n1`: the cell number change is -10.9%.

For the compound `COc1ccc(N2CCN(C(=O)COC(=O)c3ccccc3OCc3ccc(F)cc3)CC2)cc1`, the cell number change was -0.0566%. In addition, the AC50 under setting [2] was 9.2 µM [falling, partial curve, poor fit].

Turning to `CCCc1ccc(C(C)NC(=S)NC2CCCCC2)cc1` (stereo unspecified), the cell number change was -59.7%. Also, under setting [1], the AC50 is 18.4 µM [falling, single point]. The AC50 under setting [2] is 29.1 µM [falling, single point].

For the compound `NNC(=O)c1sccc1OCc1ccc(Cl)cc1Cl`, the cell number change came to 10.6%. Moreover, the AC50 under setting [2] was 0.103 µM [rising, full curve, poor fit].

On to `Cc1ccc(NC(=O)C2Cc3ccccc3CN2C(=O)c2ccco2)cc1S(=O)(=O)N(C)C` (stereo unspecified), for which the cell number change was -1.68%. Also, the AC50 under setting [2] is 6.51 µM [rising, single point].

Consider `Cc1ccccc1CNC(=O)c1ccc(CSCc2ccccc2)cc1`, for which, under setting [1], the AC50 was 6.51 µM [rising, single point].

For the compound `COc1cccc(C2CC(c3cccc(NS(C)(=O)=O)c3)=NN2C(=O)c2ccccc2)c1OC` (stereo unspecified), the cell number change was -32.6%. In addition, the AC50 under setting [1] was 4.11 µM [rising, single point].

Turning to `N#Cc1ccc(-c2ccc(OCC(O)CN3CCOCC3)cc2)cc1` (stereo unspecified), the cell number change was -31.5%. Also, the concentration at half-maximal activity (AC50) under setting [1] was 25.9 µM [falling, single point]. Also, the AC50 under setting [2] is 29.1 µM [falling, single point].

Consider `COc1cccc(NC(=O)c2cccnc2)c1`, for which the half-maximal activity concentration (AC50) under setting [2] was 0.82 µM [falling, full curve, poor fit].

Consider `COc1cccc(Nc2nnc(SCC(=O)N3CC(C)OC(C)C3)s2)c1` (stereo unspecified), for which the cell number change was -54%. For the same compound, the AC50 under setting [1] is 20.6 µM [falling, partial curve, poor fit]. The AC50 under setting [2] was 29.1 µM [falling, single point].

As to `CC(C)C(OC(=O)CN1C(=O)COc2ccccc21)C(=O)NC1CCCCC1` (stereo unspecified), the cell number change was determined as 7.39%. Moreover, the half-maximal activity concentration (AC50) under setting [2] is 29.1 µM [falling, single point].

For `CCOc1ccc(C/C(N)=N/n2cnnc2)cc1`, the cell number change is -16%.

Regarding `O=S(=O)(NCc1ccccc1)c1ccc(S(=O)(=O)N(Cc2ccccn2)Cc2ccco2)cc1`, the cell number change was -24.4%. Moreover, the half-maximal activity concentration (AC50) under setting [2] was 6.51 µM [rising, single point].

On to `CCc1cc(=O)oc2c(CN3CCCC3)c(O)c(Cl)cc12`, for which the cell number change was -12.3%. Further, the AC50 under setting [1] is 0.00651 µM [falling, full curve, poor fit]. The AC50 under setting [2] is 0.651 µM [falling, single point].

`CCn1c(=O)c2c3c(sc2n2c(=S)[nH]nc12)CCC3`: the cell number change is -28.2%. The AC50 under setting [2] is 16.4 µM [falling, single point].

`O=C(NCCN1C(=O)S/C(=C\c2ccc(Cl)cc2)C1=O)c1ccc(F)c(S(=O)(=O)N2CCOCC2)c1`: the cell number change was 12.8%.

On to `COc1ccc(N2C(=O)C(Cl)=C(Nc3ccccc3OC)C2=O)cc1`, for which the AC50 by setting is: under setting [1], 0.58 µM [rising, single point]; under setting [2], 6.51 µM [rising, single point].

With `O=C(O)CCc1ccc(-c2cccs2)o1`, the cell number change is -31.8%. Also, under setting [1], the AC50 was 29.1 µM [falling, single point]. For the same compound, the half-maximal activity concentration (AC50) under setting [2] is 5.17 µM [falling, partial curve].

`COC(=O)c1ccc(NS(=O)(=O)c2ccc(-c3cc(C)no3)s2)cc1`: the cell number change was 6.27%.

Take `CCCC1=Nc2cc(C(=O)NCCCN3CCOCC3)ccc2Sc2ccccc21`: the cell number change amounted to 16%. Moreover, under setting [2], the AC50 was 20.6 µM [rising, single point].

As for `Cc1ccc(N=Nc2cc(C)ccc2N)cc1`, the cell number change was -72.1%.

Regarding `Cc1occc1C(=O)NC1CCCCCC1`, the cell number change turned out to be 11.8%.

On to `Cc1[nH]n(-c2ccccc2)c(=O)c1C=Nc1cccc2cccnc12`, for which the cell number change worked out at 2.28%. Under setting [2], the AC50 is 0.092 µM [rising, full curve, poor fit].

Take `Cc1ccc(S(=O)(=O)C2(C(=O)O)CCCC2)cc1C`: the cell number change was -21.4%. In addition, under setting [2], the AC50 is 23.1 µM [falling, partial curve, poor fit].

For `CCOc1ccc(C2/C(=C(\O)c3ccc4c(c3)OCCO4)C(=O)C(=O)N2CCCN2CCOCC2)cc1OC` (stereo unspecified), the cell number change came to 0.472%. Also, under setting [2], the AC50 is 29.1 µM [rising, single point].

In the case of `CCc1ccc(CNC(=O)CCC(=O)N2Cc3cccc(OC)c3Oc3ncccc32)cc1`, the cell number change was determined as 5.6%. The AC50 under setting [2] is 29.1 µM [rising, single point].

With `CCOC(=O)N(CC)OC(=O)Nc1ccc(Cl)cc1`, the cell number change was -42.6%. Moreover, under setting [1], the AC50 was 3.26 µM [falling, full curve]. Further, the AC50 under setting [2] was 4.11 µM [falling, full curve].

Consider `CC(C)Cc1ccc(S(=O)(=O)N2CCN(c3ccccn3)CC2)cc1`, for which the cell number change came to 40.5%. The AC50 under setting [1] is 29.1 µM [rising, single point]. Moreover, the AC50 under setting [2] was 1.16 µM [rising, full curve].

Take `N#Cc1sc(NCc2ccccc2)nc1Cl`: the cell number change amounted to 3.85%. The concentration at half-maximal activity (AC50) under setting [1] is 0.651 µM [falling, single point]. In addition, the AC50 under setting [2] was 0.651 µM [falling, single point].

Consider `COCCN(C(=O)COC(=O)c1ccccc1Oc1ccccc1)c1c(N)n(Cc2ccccc2)c(=O)[nH]c1=O`, for which the cell number change is -7.08%. Further, the AC50 under setting [2] is 29.1 µM [falling, single point].

Take `CCOc1cc(C(=O)N(C)CC(=O)Nc2cccc(F)c2)ccc1OCC(=O)N1CCOCC1`: the cell number change was -25%. Also, the AC50 under setting [1] is 0.366 µM [rising, single point].

On to `Cc1ccc([C@@H]2CC=C(C(=O)O)CN2S(=O)(=O)c2ccc(C)cc2)cc1`, for which the cell number change was determined as 5.61%. Besides, the AC50 under setting [1] was 0.82 µM [falling, full curve, poor fit]. Under setting [2], the concentration at half-maximal activity (AC50) was 0.82 µM [falling, full curve].

For the compound `Cc1cc2ncn(-c3ncnc4sc(C)c(C)c34)c2cc1C`, the cell number change was -18%.

With `COc1ccc(NC(=S)N2CCN(C/C=C/c3ccccc3)CC2)cc1OC`, the cell number change is -13.2%. Further, the AC50 under setting [1] is 4.61 µM [rising, single point].

The values above are taken from PubChem BioAssay AID2685 (National Center for Advancing Translational Sciences (NCATS), 2010).
